Values quoted from earlier work, collected in patent US6143325A, “Nefazodone dosage form” (priority 1999, dated 2000).
For at least one compound, name, drawing or mass did not settle the structure.

Columns and labels:
Details in all cases: cited from earlier work
[1] = system: 5-HT2C
[2] = system: 5-HT2B
[3] = system: 5-HT2A

**Q.** Which “activity at 5-HT2C receptors” value [1] does the source give for `Clc1cccc(N2CCNCC2)c1` [mCPP, m-chlorophenylpiperazine] here?
**A.** partial agonist

**Q.** What about the “activity at 5-HT2B receptors” value [2] of the same compound?
**A.** partial agonist

**Q.** And the “activity at 5-HT2A receptors” value [3]?
**A.** some activity, usually seen as antagonist activity
